The results in this text go back to article PMC9788671.

Sequences of proteins named here, by UniProt entry; tags and fusion partners are left off. Residues count along the entry.
UniProt Q9NZV8: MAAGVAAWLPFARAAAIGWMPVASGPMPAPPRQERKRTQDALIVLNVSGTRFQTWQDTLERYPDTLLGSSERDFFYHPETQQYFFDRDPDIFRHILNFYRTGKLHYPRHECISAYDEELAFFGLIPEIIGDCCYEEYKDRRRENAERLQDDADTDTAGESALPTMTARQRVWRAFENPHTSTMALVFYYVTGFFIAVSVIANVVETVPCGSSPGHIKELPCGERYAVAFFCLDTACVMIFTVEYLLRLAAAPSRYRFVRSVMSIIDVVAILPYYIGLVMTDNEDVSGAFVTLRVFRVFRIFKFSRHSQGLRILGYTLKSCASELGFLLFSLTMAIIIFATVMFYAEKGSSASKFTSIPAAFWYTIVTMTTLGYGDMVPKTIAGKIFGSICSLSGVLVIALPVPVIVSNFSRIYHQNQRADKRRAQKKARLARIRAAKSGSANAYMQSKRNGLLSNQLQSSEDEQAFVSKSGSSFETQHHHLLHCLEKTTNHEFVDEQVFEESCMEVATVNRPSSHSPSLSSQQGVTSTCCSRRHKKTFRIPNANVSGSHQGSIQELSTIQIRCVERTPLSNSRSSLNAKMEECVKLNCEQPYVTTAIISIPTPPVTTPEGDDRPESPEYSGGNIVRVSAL
UniProt P63039, residues 27-573: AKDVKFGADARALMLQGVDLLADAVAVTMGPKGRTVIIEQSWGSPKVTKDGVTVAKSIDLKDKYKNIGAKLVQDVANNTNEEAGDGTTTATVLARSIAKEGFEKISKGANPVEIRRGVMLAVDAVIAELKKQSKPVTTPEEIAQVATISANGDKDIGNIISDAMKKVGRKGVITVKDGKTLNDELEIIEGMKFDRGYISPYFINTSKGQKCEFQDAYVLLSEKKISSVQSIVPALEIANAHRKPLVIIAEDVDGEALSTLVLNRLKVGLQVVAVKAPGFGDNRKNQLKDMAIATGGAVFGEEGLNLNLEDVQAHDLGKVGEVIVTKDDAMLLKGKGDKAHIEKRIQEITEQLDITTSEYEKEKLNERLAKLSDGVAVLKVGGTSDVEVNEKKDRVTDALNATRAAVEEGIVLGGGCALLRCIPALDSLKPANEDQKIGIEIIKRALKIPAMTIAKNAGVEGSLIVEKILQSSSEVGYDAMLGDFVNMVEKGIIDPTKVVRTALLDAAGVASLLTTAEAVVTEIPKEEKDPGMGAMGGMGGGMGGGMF
UniProt A6HIT6: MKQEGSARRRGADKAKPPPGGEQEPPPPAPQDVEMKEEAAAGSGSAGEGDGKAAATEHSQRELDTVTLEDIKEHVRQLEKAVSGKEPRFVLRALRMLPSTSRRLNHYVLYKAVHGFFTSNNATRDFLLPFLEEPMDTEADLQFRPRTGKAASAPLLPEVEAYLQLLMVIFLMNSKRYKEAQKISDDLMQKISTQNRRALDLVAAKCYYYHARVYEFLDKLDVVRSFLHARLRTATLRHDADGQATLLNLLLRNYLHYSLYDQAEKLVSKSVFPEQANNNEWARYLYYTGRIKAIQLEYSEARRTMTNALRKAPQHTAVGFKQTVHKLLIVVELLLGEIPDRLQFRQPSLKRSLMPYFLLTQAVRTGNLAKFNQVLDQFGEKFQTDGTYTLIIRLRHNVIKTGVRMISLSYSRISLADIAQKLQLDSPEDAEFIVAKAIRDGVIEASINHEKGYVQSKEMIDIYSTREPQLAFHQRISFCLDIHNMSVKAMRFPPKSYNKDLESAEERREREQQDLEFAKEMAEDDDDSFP
UniProt P31000: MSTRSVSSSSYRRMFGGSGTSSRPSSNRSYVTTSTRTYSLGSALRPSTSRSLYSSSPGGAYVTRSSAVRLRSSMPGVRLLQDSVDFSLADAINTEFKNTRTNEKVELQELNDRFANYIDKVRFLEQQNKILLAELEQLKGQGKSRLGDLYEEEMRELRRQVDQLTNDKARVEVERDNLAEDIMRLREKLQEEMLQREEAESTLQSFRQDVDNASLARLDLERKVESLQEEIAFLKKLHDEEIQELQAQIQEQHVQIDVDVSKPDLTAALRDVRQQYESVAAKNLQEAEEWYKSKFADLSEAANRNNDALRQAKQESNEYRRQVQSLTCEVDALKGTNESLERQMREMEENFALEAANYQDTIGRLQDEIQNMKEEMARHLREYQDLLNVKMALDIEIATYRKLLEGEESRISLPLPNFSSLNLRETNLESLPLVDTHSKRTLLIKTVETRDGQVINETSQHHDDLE
UniProt Q63537: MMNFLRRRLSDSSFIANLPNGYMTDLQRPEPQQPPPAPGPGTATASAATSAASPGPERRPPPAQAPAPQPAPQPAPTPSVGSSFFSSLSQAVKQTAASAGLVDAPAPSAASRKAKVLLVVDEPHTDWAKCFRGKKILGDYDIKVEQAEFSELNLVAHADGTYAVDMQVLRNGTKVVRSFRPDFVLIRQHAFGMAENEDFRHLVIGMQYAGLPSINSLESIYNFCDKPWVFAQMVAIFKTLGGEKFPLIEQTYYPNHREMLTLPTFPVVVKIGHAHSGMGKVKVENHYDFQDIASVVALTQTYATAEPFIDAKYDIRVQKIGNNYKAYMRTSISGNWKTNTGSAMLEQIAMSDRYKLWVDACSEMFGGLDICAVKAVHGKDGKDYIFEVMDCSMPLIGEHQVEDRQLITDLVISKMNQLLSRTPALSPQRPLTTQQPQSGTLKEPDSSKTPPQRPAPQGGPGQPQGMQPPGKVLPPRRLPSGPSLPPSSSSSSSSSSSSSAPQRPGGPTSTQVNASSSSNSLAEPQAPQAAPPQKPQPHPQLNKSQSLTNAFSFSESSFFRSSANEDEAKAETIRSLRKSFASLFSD
UniProt Q9EQG6: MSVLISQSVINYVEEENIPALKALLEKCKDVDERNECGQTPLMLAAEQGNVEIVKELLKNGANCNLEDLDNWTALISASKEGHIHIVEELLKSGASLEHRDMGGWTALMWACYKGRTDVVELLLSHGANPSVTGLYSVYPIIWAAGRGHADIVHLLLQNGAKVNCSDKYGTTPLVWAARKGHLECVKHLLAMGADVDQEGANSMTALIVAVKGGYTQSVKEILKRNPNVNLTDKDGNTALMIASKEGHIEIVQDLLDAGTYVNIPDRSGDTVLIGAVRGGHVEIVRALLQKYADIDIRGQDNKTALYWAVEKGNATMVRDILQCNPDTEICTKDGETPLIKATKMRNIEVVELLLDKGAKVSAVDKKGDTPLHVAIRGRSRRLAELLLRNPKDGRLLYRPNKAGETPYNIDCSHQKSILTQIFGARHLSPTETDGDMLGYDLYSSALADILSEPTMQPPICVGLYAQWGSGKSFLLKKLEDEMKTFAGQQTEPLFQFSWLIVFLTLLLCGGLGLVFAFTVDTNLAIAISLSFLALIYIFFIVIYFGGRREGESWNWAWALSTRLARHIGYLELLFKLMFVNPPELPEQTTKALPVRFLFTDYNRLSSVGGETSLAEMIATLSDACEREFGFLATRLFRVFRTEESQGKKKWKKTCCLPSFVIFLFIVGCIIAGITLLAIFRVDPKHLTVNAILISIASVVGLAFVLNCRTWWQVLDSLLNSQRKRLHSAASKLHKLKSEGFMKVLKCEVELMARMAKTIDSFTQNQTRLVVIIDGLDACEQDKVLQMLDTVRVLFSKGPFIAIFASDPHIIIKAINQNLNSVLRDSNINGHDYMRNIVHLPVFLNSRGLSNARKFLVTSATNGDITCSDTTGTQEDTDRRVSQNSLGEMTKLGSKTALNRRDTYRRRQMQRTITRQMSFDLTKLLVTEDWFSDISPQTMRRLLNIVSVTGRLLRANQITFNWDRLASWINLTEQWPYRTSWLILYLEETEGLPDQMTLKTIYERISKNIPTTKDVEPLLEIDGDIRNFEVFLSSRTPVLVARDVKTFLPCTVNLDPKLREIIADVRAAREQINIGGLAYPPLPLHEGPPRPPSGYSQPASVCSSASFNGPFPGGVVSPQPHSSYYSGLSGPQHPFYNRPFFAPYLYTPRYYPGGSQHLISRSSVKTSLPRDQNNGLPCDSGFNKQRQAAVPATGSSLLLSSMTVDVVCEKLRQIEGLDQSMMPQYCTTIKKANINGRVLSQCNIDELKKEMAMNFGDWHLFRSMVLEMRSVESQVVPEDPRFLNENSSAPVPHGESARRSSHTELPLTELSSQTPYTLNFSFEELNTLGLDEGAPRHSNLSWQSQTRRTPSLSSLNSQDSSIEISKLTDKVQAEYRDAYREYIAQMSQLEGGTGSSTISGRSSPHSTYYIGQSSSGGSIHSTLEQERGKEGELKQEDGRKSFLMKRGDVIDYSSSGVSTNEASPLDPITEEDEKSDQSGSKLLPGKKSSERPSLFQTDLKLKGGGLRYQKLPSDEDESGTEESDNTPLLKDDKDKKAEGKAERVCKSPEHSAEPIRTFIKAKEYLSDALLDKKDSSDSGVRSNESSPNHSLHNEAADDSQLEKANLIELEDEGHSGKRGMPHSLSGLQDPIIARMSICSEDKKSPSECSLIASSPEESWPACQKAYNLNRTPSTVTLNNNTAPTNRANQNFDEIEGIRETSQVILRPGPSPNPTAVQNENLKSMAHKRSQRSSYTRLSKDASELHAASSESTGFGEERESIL
UniProt A1L1L6: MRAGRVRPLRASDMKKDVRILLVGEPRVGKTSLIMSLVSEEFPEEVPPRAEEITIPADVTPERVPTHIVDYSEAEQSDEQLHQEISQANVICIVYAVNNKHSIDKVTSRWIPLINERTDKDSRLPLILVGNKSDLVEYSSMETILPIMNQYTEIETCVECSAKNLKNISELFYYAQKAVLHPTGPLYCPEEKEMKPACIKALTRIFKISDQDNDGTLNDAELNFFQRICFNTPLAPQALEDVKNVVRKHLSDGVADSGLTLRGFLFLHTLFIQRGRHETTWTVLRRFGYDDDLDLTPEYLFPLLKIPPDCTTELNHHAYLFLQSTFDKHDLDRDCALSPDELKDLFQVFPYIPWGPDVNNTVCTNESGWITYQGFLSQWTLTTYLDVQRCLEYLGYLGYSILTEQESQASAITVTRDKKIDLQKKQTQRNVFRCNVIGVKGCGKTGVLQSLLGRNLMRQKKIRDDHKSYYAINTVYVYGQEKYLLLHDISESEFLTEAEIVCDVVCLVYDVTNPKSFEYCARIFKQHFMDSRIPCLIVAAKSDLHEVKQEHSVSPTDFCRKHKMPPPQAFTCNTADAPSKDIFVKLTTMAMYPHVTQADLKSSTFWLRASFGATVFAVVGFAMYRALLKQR
UniProt Q9WU82: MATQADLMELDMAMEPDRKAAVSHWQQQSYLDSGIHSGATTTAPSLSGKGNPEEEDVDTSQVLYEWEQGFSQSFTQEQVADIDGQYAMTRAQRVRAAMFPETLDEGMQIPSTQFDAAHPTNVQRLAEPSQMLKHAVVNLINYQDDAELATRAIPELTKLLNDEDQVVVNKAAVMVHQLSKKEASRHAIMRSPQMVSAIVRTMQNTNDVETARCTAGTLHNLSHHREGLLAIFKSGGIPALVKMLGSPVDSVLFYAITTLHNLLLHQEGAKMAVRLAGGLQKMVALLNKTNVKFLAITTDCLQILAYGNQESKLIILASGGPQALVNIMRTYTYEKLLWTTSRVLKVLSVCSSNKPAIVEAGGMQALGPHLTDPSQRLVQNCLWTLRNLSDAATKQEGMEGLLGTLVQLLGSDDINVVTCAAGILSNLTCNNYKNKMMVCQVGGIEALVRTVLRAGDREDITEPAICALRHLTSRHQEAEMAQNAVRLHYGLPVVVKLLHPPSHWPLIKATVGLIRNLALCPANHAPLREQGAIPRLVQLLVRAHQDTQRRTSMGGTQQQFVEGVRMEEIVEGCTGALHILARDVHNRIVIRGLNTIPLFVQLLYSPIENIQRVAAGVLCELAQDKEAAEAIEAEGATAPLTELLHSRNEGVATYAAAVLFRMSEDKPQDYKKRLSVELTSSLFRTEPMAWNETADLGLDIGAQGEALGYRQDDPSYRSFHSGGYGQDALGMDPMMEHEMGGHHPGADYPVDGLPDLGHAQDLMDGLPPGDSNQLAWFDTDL
UniProt Q62950: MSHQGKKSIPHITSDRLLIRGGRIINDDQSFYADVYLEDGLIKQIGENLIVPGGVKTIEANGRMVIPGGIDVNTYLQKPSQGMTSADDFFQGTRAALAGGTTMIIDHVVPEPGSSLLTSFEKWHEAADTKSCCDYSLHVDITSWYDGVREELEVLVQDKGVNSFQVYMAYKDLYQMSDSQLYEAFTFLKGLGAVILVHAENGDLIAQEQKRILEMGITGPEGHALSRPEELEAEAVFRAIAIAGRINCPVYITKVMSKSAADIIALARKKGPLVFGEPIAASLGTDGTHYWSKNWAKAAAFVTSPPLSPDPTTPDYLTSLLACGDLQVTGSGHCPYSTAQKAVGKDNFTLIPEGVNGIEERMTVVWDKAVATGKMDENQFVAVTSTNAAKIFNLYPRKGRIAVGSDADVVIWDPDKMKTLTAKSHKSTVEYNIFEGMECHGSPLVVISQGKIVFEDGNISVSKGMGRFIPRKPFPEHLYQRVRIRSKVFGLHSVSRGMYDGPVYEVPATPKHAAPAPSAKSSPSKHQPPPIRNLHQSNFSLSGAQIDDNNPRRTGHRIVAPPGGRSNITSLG

In the experiment the target is TAP-Kv4.2 (human) (UniProt Q9NZV8). As to the kind of experiment: affinity purification with mass spectrometry; TAP-Kv4.2 expressed by lentivirus in rat hippocampal neurons, harvested at DIV14; weak lysis buffer of the kit (0.1% NP-40); streptavidin resin, then calmodulin resin; gel cut into high and low molecular weight fragments; no MS of the control sample.

No constants are given. Whether binding was seen depends on the method and setting. Binding seen in cells or lysates may run through a third protein. Here binding means that the protein was enriched with, or labelled near, the bait; the list need not be complete.

Tpi1 (from UniProt P48500 1-249): the binding result is given as “binds”. The entry for Dync1li1 (from UniProt Q9QXU8 1-523) is “binds”.

For the substance Stxbp1 (from UniProt P61765 1-594), the binding result is listed as “binds”.

With Ckm (from UniProt P00564 1-381), the binding result was “binds”.

Turning to Hspd1 (from UniProt P63039 27-573), the binding result was “binds”. The entry for Tubb6 (from UniProt A6IXU7 1-447) is “binds”; for Slc27a1 (from UniProt P97849 1-646) it is “binds”; for Hnrnpa1 (from UniProt P04256 1-320) it is “binds”.

For the substance Hadha (from UniProt Q64428 37-763), the binding result was “binds”. In the case of Idh3B (from UniProt Q68FX0 35-385), the binding entry was “binds”. In the case of Psmd3 (from UniProt A6HIT6 1-530) it was “binds”; in that of Mark1 (from UniProt O08678 1-793), “binds”; in that of Hnrnpul2 (from UniProt D4ABT8 1-736), “binds”. In the case of Tubb5 (from UniProt P69897 1-444) it was “binds”. In the case of Tcp1 (from UniProt P28480 1-556) it was “binds”; in that of Pkm (from UniProt P11980 1-531), “binds”.

Turning to Ddb1 (from UniProt Q9ESW0 1-1140), the binding entry is reported as “binds”. As for Elavl2 (from UniProt Q8CH84 1-359), the binding entry is listed as “binds”. In the case of Atp5b (from UniProt P10719 47-529) it was “binds”. Consider Fn1 (from UniProt P04937 25-2477), for which the binding result is given as “binds”. In the case of Hnrnpa2b1 (from UniProt A7VJC2 1-353) it was “binds”; in that of Gapdh (from UniProt P04797 1-333), “binds”; in that of Psmd2 (from UniProt Q4FZT9 1-908), “binds”.

Consider Cfl1 (from UniProt P45592 1-166), for which the binding result was “binds”. In the case of Ndufs1 (from UniProt Q66HF1 24-727) it was “binds”; in that of Rph3a (from UniProt P47709 1-684), “binds”; in that of Atp1a3 (from UniProt P06687 1-1013), “binds”. The entry for Hspa9 (from UniProt P48721 47-679) is “binds”. Take Eef1a1 (from UniProt P62630 1-462): the binding result was “binds”. The entry for Ipo7 (from UniProt D4AE96 1-1038) is “binds”. Take Hsp90ab1 (from UniProt P34058 1-724): the binding entry is reported as “binds”.

Regarding Sv2a (from UniProt Q02563 1-742), the binding result is reported as “binds”.

Regarding Syt1 (from UniProt P21707 1-421), the binding result is recorded as “binds”. With Atp2a2 (from UniProt P11507 1-1043), the binding result is given as “binds”. Regarding Vim (from UniProt P31000 1-466), the binding entry is recorded as “binds”. The entry for Ca2 (from UniProt P27139 1-260) is “binds”; for Prkca (from UniProt P05696 1-672) it is “binds”. The entry for DPP10 (from UniProt Q6Q629 1-796) is “binds”; for Syn2 (from UniProt Q63537 1-586) it is “binds”; for Kidins220 (from UniProt Q9EQG6 1-1762) it is “binds”. In the case of Numbl (from UniProt A1L1I3 1-614) it was “binds”; in that of Rhot1 (from UniProt A1L1L6 1-631), “binds”; in that of Atp6v0a1 (from UniProt P25286 1-838), “binds”.

Consider Clu (from UniProt P05371 22-447), for which the binding entry is “binds”. Turning to Atp2a1 (from UniProt Q64578 1-994), the binding entry is given as “binds”. Consider Syn1 (from UniProt P09951 1-704), for which the binding entry is “binds”. The entry for Hspa2 (from UniProt P14659 1-633) is “binds”; for Dnaja1 (from UniProt P63036 1-397) it is “binds”. The entry for Hspa1a (from UniProt P0DMW0 1-641) is “binds”. In the case of Psmc1 (from UniProt P62193 1-440) it was “binds”; in that of Eno1 (from UniProt P04764 1-434), “binds”; in that of Dpysl3 (from UniProt Q62952 1-570), “binds”.

For the substance Eif2c2 (from UniProt Q9QZ81 1-860), the binding entry is reported as “binds”. As to Ctnnb1 (from UniProt Q9WU82 1-781), the binding entry is “binds”.

For Hbb (from UniProt P02091 1-147), the binding entry is recorded as “binds”. The entry for Amfr (from UniProt A0A0G2K437 1-770) is “binds”; for Alb (from UniProt P02770 25-608) it is “binds”. The entry for Alg2 (from UniProt G3V6U3) is “binds”; for Gfap (from UniProt P47819 1-430) it is “binds”. In the case of Capza2 (from UniProt Q3T1K5 1-286) it was “binds”; in that of C3 (from UniProt P01026 25-1663), “binds”; in that of Syn3 (from UniProt O70441 1-579), “binds”. In the case of Crmp1 (from UniProt Q62950 1-572), the binding entry is recorded as “binds”. In the case of Gsn (from UniProt Q68FP1 26-780) it was “binds”.

For Eno3 (from UniProt P15429 1-434), the binding entry is listed as “binds”. The entry for Acsl4 (from UniProt O35547 1-711) is “binds”; for Nsf (from UniProt Q9QUL6 1-744) it is “binds”. The entry for Psmc4 (from UniProt Q63570 1-418) is “binds”. In the case of Pvalb (from UniProt P02625 1-110) it was “binds”; in that of Bag6 (from UniProt Q6MG49 1-1146), “binds”; in that of Kpnb1 (from UniProt P52296 1-875), “binds”. Turning to Atp12a (from UniProt P54708 1-1036), the binding entry is given as “binds”.

Consider Madd (from UniProt O08873 1-1602), for which the binding entry was “binds”. For Tubb4b (from UniProt Q6P9T8 1-445), the binding entry is on record as “binds”. In the case of Ppp2r1a (from UniProt Q5XI34 1-589) it was “binds”; in that of Usp7 (from UniProt Q4VSI4 1-1103), “binds”; in that of Slc27a4 (from UniProt G3V7V3 1-643), “binds”. The entry for Psmc5 (from UniProt P62198 1-406) is “binds”.

In the case of Kif2a (from UniProt Q9WV63 1-705), the binding entry is recorded as “binds”.
